Test results published in US7968578B2, “Indole amide derivatives as EP4 receptor antagonists” (Merck Frosst Canada Ltd., priority 2006, dated 2011).
Some results were stated once for a whole list of compounds, not compound by compound.

Amino acid sequences for entries named in this document (tags omitted). A change or cut given only in a name is not applied to a line headed by its entry.
UniProt P35408: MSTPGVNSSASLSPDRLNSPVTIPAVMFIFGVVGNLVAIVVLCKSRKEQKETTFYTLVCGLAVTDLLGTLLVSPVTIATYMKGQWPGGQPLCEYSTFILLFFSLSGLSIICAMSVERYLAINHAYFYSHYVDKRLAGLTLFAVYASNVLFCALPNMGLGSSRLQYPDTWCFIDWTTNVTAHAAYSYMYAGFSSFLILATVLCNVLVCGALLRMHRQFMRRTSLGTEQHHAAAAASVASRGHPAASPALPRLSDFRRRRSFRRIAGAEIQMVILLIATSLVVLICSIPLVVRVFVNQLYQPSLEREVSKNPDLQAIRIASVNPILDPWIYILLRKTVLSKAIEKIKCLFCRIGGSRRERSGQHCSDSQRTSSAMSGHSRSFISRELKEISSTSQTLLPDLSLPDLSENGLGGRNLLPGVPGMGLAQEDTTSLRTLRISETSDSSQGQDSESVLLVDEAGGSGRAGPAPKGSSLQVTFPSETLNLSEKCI

Assays:
EP4 receptor = target: T1, EP4 receptor (Homo sapiens, UniProt P35408); assay: Prostanoid receptor binding assay for the EP4 receptor; settings: membranes of transfected HEK 293(ebna) cells, radioligand; read-out: IC50s in binding assay for the EP4 receptor
T1 construct: expressed in transfected cells; host or cells: HEK 293(ebna) cells, membranes

HEK-293(ebna)-hEP4 cells = target: T2, HEK-293(ebna)-hEP4 cells (Homo sapiens, UniProt P35408); assay: EP4 receptor antagonist assay (whole cell cAMP accumulation); format: cell-based; settings: inhibition of PGE2-induced cAMP, PGE2 at its EC70
T2 construct: expressed in transfected cells; host or cells: HEK-293(ebna) cells

| SMILES | IC50 (EP4 receptor) [µM] | EC50 (HEK-293(ebna)-hEP4 cells) [µM] |
| --- | --- | --- |
| C[C@H](NC(=O)c1cccc2c(Cl)cn(Cc3cccc(Cl)c3)c12)c1ccc(C(=O)O)cc1 [Example 7, 4-[(1S)-1-({[3-chloro-1-(3-chlorobenzyl)-1H-indol-7-yl]carbonyl}amino)ethyl]benzoic acid] | < 0.5 | ≤ 0.5 |
| C[C@H](NC(=O)c1cccc2ccn(CCc3cccc(Cl)c3)c12)c1ccc(C(=O)O)cc1 [Example 5, 4-{(1S)-1-[({1-[2-(3-chlorophenyl)ethyl]-1H-indol-7-yl}carbonyl)amino]ethyl}benzoic acid] | < 0.5 | ≤ 0.5 |
| CC(=O)c1cn(Cc2cccc(Cl)c2)c2c(C(=O)N[C@@H](C)c3ccc(C(=O)O)cc3)cccc12 [Example 8, 4-[(1S)-1-({[3-acetyl-1-(3-chlorobenzyl)-1H-indol-7-yl]carbonyl}amino)ethyl]benzoic acid] | < 0.5 | ≤ 0.5 |
| Cc1cc2cccc(C(=O)N[C@@H](C)c3ccc(C(=O)O)cc3)c2n1Cc1cccc(Cl)c1 [Example 10, 4-[(1S)-1-({[1-(3-chlorobenzyl)-2-methyl-1H-indol-7-yl]carbonyl}amino)ethyl]benzoic acid] | < 0.5 | ≤ 0.5 |
| C[C@H](NC(=O)c1cccc2ccn(Cc3ccc(OC(F)(F)F)c(Cl)c3)c12)c1ccc(C(=O)O)cc1 [Example 4, 4-{(1S)-1-[({1-[3-chloro-4-(trifluoromethoxy)benzyl]-1H-indol-7-yl}carbonyl)amino]ethyl}benzoic acid] | < 0.5 | ≤ 0.5 |
| Cc1cn(Cc2cccc(Cl)c2)c2c(C(=O)N[C@@H](C)c3ccc(C(=O)O)cc3)cccc12 [Example 6, 4-[(1S)-1-({[1-(3-chlorobenzyl)-3-methyl-1H-indol-7-yl]carbonyl}amino)ethyl]benzoic acid] | < 0.5 | ≤ 0.5 |
| C[C@H](NC(=O)c1cccc2ccn(-c3cccc(Cl)c3)c12)c1ccc(C(=O)O)cc1 [Example 3, 4-[(1S)-1-({[1-(3-chlorophenyl)-1H-indol-7-yl]carbonyl}amino)ethyl]benzoic acid] | < 0.5 | ≤ 0.5 |

Now from value to compound:

| IC50 (EP4 receptor) [µM] | EC50 (HEK-293(ebna)-hEP4 cells) [µM] | SMILES |
| --- | --- | --- |
| < 0.5 | ≤ 0.5 | C[C@H](NC(=O)c1cc(Cl)cc2nnn(Cc3cccc(Cl)c3)c12)c1ccc(C(=O)O)cc1 [Example 16, 4-[(1S)-1-({[5-chloro-1-(3-chlorobenzyl)-1H-1,2,3-benzotriazol-7-yl]carbonyl}amino)ethyl]benzoic acid] |
| < 0.5 | ≤ 0.5 | C[C@H](NC(=O)c1cc(Cl)cc2cnn(Cc3cccc(Cl)c3)c12)c1ccc(C(=O)O)cc1 [Example 12, 4-[(1S)-1-({[5-chloro-1-(3-chlorobenzyl)-1H-indazol-7-yl]carbonyl}amino)ethyl]benzoic acid] |
| < 0.5 | ≤ 0.5 | C[C@H](NC(=O)c1cccc2cnn(Cc3cccc(Cl)c3)c12)c1ccc(C(=O)O)cc1 [Example 11, 4-[(1S)-1-({[1-(3-chlorobenzyl)-1H-indazol-7-yl]carbonyl}amino)ethyl]benzoic acid] |
| < 0.5 | ≤ 0.5 | C[C@H](NC(=O)c1cc(Cl)cc2ncn(Cc3cccc(Cl)c3)c12)c1ccc(C(=O)O)cc1 [Example 15, 4-[(1S)-1-({[5-chloro-1-(3-chlorobenzyl)-1H-benzimidazol-7-yl]carbonyl}amino)ethyl]benzoic acid] |
| < 0.5 | ≤ 0.5 | C[C@H](NC(=O)c1cccc2[nH]cc(Sc3cccc(Cl)c3)c12)c1ccc(C(=O)O)cc1 [Example 13, 4-{(1S)-1-[({3-[(3-chlorophenyl)thio]-1H-indol-4-yl}carbonyl)amino]ethyl}benzoic acid] |
| < 0.5 | ≤ 0.5 | C[C@H](NC(=O)c1cccc2[nH]cc(Cc3cccc(Cl)c3)c12)c1ccc(C(=O)O)cc1 [Example 14, 4-[(1S)-1-({[3-(3-chlorobenzyl)-1H-indol-4-yl]carbonyl}amino)ethyl]benzoic acid] |
